Measured values published in patent US20250025558A1.
Results are given in words; binding and its absence hold for the method and conditions named. Some binding calls cover weakened binding; strength is not graded here.

By UniProt entry, the sequences of proteins in these tests, tags left out. Where a name states a change or a piece, a line headed by the entry shows the natural chain unless it says otherwise.
UniProt P10636: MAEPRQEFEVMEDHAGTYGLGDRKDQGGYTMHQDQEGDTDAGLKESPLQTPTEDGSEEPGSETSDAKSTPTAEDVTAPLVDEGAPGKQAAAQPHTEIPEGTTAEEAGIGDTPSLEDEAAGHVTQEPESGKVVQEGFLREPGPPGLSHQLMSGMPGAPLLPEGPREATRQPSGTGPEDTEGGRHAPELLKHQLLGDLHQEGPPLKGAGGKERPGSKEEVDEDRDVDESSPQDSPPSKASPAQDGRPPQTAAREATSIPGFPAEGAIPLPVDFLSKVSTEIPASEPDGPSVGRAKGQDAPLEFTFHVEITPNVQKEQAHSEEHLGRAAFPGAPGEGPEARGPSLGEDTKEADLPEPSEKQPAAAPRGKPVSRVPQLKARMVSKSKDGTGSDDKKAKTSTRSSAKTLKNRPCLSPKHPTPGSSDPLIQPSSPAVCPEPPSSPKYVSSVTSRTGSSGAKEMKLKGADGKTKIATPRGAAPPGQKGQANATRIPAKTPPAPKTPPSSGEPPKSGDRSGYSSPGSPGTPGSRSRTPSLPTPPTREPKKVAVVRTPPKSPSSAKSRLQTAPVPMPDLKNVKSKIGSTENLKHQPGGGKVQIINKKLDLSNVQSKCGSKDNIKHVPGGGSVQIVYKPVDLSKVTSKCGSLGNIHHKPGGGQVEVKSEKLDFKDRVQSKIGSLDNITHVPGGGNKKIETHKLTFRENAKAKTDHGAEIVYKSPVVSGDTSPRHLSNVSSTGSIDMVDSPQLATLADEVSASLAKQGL

Assays:
[1] = target: Tau, fluorescently labeled (UniProt P10636); assay: flow cytometry of ATTO-488-labeled Tau on mixed HMC3 cells expressing CARAβ, CARTau, both or neither
[2] = target: Tau, fluorescently labeled (UniProt P10636); assay: flow cytometry of ATTO-488-labeled Tau on CAR-expressing HMC3 cells

B1: anti-Tau CAR with scFv from Gosuranemab (orientation not stated) (protein)
VH: EVHLVESGGALVKPGGSLRLSCAASGFSFSKYGMSWVRQAPGKGLEWVATISSSGSRTYYPDSVKGRFTISRDNAKNTLYLQMNSLRAEDTAMYYCSISWDGAMDYWGQGTTVTVSS
VL: DVVMTQSPLSLPVTLGQPASISCKSSQSIVHSNGNTYLEWYLQKPGQSPQLLVYKVSNRFSGVPDRFSGSGSGTDFTLKISRVEAEDVGTYYCFQGSLVPWAFGGGTKVEIK
In the case of B1, the binding [1] is reported as “binds” and the binding [2] is reported as “binds”.
